# Results as given in the supplement of paper PMC12819154, “High-throughput peptide-centric local stability assay extends protein–ligand identification to membrane proteins, tissues and bacteria” (Nature Structural & Molecular Biology, 2025).
# By UniProt entry, the sequences of proteins in these tests, tags left out. Where a name states a change or a piece, a line headed by the entry shows the natural chain unless it says otherwise.
# UniProt Q6ZSJ8: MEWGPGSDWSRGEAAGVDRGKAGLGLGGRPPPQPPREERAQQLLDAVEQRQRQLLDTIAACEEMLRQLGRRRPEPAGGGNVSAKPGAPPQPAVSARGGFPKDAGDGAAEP
# UniProt Q6ZSR9: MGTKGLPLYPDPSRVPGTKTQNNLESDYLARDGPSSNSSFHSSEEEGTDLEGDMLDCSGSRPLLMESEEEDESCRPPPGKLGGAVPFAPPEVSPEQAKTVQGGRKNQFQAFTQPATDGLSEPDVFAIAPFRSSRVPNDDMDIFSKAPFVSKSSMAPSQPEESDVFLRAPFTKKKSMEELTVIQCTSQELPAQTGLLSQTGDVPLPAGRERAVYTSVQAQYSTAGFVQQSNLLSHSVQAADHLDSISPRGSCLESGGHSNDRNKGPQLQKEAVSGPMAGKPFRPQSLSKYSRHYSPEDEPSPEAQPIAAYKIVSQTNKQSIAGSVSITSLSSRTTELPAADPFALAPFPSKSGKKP
# UniProt Q6ZRV2: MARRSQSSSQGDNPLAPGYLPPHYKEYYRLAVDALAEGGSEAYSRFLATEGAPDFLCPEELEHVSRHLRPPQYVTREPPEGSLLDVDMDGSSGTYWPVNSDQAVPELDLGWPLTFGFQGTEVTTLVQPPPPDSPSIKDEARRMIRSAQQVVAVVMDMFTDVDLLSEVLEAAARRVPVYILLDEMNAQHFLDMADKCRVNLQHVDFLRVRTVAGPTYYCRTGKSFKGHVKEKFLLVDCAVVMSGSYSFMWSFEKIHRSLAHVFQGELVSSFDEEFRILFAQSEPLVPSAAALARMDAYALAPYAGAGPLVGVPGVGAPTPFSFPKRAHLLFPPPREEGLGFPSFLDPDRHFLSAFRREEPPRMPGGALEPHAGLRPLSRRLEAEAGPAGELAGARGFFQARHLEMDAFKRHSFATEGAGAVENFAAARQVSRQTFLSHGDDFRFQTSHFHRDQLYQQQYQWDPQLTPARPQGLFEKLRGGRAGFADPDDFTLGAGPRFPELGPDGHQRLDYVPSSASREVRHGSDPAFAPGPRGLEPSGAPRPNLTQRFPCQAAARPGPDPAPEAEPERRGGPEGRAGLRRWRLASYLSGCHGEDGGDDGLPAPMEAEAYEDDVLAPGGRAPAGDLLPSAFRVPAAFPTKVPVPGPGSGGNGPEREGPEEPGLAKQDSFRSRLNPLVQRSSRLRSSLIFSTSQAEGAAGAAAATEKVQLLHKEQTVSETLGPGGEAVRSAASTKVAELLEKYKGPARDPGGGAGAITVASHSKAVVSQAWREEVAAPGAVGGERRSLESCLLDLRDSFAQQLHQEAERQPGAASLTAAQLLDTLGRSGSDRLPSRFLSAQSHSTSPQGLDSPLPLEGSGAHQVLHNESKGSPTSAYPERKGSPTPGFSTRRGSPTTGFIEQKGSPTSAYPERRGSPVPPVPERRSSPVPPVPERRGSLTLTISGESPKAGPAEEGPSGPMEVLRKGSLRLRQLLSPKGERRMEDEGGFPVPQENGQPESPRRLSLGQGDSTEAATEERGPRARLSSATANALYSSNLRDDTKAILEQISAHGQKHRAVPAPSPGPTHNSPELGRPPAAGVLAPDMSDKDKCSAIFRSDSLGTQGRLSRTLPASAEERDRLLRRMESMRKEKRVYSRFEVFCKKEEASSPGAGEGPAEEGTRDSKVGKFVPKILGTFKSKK
# UniProt Q86UL8: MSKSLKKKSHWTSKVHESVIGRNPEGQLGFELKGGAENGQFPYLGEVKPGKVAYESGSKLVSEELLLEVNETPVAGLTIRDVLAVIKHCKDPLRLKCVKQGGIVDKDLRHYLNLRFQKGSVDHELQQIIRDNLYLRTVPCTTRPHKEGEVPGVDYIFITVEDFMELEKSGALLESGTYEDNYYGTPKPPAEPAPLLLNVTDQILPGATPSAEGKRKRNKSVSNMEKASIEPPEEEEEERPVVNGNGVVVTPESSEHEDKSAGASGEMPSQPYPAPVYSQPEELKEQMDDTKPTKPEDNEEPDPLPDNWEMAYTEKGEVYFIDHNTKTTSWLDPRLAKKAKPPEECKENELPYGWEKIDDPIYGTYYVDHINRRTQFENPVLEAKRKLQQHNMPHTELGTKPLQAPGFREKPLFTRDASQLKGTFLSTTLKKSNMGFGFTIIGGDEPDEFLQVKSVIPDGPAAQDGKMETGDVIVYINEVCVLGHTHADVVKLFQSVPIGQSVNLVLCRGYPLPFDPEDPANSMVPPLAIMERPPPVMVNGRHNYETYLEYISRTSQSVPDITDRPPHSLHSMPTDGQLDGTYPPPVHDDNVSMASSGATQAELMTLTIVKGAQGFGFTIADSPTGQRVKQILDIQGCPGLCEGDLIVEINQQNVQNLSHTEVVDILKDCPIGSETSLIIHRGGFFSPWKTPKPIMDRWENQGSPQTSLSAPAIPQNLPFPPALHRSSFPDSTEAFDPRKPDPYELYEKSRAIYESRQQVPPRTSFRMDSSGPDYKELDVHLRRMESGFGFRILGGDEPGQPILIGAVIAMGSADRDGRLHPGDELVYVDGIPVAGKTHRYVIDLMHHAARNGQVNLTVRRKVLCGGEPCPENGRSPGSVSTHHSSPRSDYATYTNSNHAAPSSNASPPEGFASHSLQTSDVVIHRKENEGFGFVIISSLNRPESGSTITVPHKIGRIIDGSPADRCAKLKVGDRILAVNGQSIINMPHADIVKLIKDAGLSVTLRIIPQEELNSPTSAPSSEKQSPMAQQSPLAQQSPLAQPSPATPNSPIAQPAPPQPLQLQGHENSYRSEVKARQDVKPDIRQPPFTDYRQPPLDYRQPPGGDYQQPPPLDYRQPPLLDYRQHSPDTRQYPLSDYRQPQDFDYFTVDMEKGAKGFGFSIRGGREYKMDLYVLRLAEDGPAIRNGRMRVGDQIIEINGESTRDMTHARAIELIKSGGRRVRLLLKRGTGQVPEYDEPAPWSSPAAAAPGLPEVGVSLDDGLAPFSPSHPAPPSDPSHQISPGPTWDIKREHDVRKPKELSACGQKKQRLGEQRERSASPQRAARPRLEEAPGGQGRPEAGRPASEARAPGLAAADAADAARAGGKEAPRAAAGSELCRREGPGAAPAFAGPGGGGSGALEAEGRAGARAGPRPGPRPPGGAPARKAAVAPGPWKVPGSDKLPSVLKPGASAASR
# UniProt Q7Z2Z2: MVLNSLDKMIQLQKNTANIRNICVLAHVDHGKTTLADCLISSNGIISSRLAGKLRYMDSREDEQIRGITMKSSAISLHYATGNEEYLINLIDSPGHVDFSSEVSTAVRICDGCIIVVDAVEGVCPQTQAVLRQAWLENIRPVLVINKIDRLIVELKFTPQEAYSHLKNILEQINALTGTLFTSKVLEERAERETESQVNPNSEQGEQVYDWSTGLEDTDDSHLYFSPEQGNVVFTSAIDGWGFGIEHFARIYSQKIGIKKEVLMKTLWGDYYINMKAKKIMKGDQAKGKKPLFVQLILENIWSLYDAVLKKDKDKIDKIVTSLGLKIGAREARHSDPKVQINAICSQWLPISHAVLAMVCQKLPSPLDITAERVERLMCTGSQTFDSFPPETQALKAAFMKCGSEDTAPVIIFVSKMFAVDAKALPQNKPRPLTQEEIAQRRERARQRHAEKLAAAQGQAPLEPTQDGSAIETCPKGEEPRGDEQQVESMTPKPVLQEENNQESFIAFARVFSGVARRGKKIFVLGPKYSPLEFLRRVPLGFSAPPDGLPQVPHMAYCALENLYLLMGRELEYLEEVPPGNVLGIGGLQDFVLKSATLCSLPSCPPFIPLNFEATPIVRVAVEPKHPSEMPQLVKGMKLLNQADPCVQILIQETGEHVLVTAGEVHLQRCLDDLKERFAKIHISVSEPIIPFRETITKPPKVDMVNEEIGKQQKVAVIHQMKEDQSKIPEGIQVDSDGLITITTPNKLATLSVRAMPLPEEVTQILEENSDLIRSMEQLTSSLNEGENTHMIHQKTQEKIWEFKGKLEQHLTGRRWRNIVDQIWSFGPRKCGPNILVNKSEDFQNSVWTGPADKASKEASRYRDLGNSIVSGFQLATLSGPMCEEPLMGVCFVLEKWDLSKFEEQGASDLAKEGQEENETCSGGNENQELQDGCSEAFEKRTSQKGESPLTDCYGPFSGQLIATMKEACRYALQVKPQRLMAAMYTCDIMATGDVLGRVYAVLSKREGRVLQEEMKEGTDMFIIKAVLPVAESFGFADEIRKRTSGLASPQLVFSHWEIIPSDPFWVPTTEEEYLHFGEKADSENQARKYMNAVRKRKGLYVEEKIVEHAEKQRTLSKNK
# UniProt Q75N03: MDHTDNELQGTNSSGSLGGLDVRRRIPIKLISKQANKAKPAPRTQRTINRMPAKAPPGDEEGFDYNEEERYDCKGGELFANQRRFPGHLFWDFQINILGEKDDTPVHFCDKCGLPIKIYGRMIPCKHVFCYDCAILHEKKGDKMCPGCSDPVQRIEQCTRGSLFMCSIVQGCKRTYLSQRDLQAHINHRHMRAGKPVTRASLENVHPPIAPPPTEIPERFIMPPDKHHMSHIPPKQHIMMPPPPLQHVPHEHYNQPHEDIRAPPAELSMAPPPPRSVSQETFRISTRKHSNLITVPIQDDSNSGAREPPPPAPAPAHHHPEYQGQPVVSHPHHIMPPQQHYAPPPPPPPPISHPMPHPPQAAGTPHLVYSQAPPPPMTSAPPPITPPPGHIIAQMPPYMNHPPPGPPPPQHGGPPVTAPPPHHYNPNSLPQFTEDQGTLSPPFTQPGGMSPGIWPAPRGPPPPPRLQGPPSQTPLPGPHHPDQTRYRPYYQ
# UniProt Q6ZT07: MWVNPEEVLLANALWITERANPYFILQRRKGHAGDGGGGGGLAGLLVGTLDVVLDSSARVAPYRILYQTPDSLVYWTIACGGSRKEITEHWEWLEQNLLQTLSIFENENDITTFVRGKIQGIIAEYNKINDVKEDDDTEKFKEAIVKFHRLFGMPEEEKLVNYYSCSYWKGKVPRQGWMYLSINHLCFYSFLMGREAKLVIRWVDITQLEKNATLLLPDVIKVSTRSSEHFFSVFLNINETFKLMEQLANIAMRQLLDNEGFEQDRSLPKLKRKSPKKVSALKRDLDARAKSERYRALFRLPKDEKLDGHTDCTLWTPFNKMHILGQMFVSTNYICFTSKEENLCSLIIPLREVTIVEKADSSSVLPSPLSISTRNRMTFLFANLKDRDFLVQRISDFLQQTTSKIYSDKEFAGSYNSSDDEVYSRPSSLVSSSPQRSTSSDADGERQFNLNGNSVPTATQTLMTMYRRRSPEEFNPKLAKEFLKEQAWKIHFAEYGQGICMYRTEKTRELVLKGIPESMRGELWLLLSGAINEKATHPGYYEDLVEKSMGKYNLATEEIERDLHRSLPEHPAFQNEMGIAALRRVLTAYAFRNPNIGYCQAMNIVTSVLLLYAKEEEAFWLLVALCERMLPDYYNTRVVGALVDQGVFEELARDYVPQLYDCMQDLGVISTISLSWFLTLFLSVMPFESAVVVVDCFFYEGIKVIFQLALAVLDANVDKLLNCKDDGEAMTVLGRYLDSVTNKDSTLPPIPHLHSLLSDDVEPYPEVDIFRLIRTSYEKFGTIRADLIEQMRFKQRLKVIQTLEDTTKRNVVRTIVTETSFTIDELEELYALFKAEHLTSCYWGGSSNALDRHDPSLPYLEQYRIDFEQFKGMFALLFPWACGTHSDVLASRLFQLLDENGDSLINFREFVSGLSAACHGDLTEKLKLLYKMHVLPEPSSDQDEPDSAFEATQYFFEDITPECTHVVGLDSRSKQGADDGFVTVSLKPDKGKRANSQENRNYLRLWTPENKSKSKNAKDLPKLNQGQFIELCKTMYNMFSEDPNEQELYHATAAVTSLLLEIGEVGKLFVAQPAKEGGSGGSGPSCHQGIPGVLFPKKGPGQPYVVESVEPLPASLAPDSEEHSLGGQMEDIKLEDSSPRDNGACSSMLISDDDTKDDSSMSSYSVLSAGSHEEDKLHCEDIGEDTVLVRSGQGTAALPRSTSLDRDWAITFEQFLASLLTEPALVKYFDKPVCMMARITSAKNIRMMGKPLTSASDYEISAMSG
# UniProt Q7Z7A4: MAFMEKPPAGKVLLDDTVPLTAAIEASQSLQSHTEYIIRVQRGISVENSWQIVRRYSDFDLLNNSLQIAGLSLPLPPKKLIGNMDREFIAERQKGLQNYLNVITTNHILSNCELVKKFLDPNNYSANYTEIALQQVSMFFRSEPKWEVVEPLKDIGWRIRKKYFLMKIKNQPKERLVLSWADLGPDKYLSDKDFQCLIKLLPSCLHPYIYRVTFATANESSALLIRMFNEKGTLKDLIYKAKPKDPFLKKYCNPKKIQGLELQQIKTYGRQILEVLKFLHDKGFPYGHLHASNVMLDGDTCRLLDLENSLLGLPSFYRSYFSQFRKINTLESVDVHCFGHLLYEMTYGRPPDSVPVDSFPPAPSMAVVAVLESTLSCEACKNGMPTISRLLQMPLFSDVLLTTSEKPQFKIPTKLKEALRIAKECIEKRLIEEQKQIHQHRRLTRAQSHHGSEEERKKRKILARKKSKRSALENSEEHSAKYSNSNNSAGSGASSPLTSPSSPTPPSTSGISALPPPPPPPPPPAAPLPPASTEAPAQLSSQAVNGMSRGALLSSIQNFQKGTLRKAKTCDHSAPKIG
# Some of the results follow. Most values lie at the level of the controls, where differences are scatter.
# Compound: CN[C@@H]1C[C@H]2O[C@@](C)([C@@H]1OC)n1c3ccccc3c3c4c(c5c6ccccc6n2c5c31)C(=O)NC4 [staurosporine]
# Test: log2 fold change of tryptic peptide abundance, ligand vs vehicle (limited proteolysis) (log2 ratio); higher = more trypsin-susceptible (destabilized)
# Details: ligand concentration: 20 uM; sample: K562 cleared lysate; digestion: 4 min, 22 C (HT-PELSA RT4min, Orbitrap Astral)
row,Target,log2 fold change
1,"UniProt Q70EK8 (peptide sequence: ASAQIISSSK, peptide start residue: 527)",-0.14
2,"UniProt Q7Z5K2 (peptide sequence: SMDEFTASTPADLGEAGR, peptide start residue: 380)",0.478
3,"KTN1 (peptide sequence: QNDQVSFASLVEELKK, peptide start residue: 786) (UniProt Q86UP2)",0.281
4,"CLASP1 (peptide sequence: GPPVTPSSEKR, peptide start residue: 707) (UniProt Q7Z460)",0.328
5,"C1orf122 (peptide sequence: PGAPPQPAVSAR, peptide start residue: 85) (UniProt Q6ZSJ8)",0.125
6,"CEFIP (peptide sequence: ATPVIKPIMLPLLR, peptide start residue: 864) (UniProt Q711Q0)",0.287
7,"ZFHX4 (peptide sequence: QQQEQQQKPVQAK, peptide start residue: 3287) (UniProt Q86UP3)",-0.256
8,"TRPT1 (peptide sequence: KPLSLAGDEETECQSSPK, peptide start residue: 225) (UniProt Q86TN4)",0.317
9,"UniProt Q7L5D6 (peptide sequence: EQNYCESR, peptide start residue: 156)",0.612
10,"ADAT2 (peptide sequence: IPLVVYGCQNER, peptide start residue: 119) (UniProt Q7Z6V5)",-0.179
11,"UniProt Q7Z3J2 (peptide sequence: LNQLSVNLWHLAQR, peptide start residue: 909)",0.415
12,"UniProt Q7LBC6 (peptide sequence: LVSGVLGSALTSGGPSLSAMGNGR, peptide start residue: 701)",0.596
13,"UniProt Q6ZSR9 (peptide sequence: GLPLYPDPSRVPGTK, peptide start residue: 5)",0.0892
14,"UniProt Q7RTT6 (peptide sequence: YFSKEEWEK, peptide start residue: 31)",0.119
15,"MAEA (peptide sequence: LAQPLPMAHCANSR, peptide start residue: 324) (UniProt Q7L5Y9)",-0.0886
16,"UniProt Q6ZSZ5 (peptide sequence: EDASKEDVIFF, peptide start residue: 1351)",-0.274
17,"MEX3B (peptide sequence: DKEPVFEVTGMPENVDR, peptide start residue: 200) (UniProt Q6ZN04)",-0.488
18,"FAM83H (peptide sequence: MPGGALEPHAGLRPLSR, peptide start residue: 362) (UniProt Q6ZRV2)",0.636
19,"UniProt Q86UL8 (peptide sequence: TTSWLDPR, peptide start residue: 325)",0.0408

# A different layout for some results above.
row | Target | log2 fold change
4 | CLASP1 (peptide sequence: GPPVTPSSEKR, peptide start residue: 707) (UniProt Q7Z460) | 0.328
7 | ZFHX4 (peptide sequence: QQQEQQQKPVQAK, peptide start residue: 3287) (UniProt Q86UP3) | -0.256

# Following part.

row,Target,log2 fold change
1,"TOM1L2 (peptide sequence: KTVTYEDPQAVGGLASALDNRK, peptide start residue: 400) (UniProt Q6ZVM7)",-0.303
2,"UniProt Q7Z2Z2 (peptide sequence: AVLPVAESFGFADEIRK, peptide start residue: 1026)",-0.23
3,"CBLL1 (peptide sequence: GGELFANQR, peptide start residue: 75) (UniProt Q75N03)",-0.173
4,"NEK8 (peptide sequence: SVAPSNTGSR, peptide start residue: 280) (UniProt Q86SG6)",0.151
5,"TBC1D9 (peptide sequence: MTFLFANLKDRDFLVQR, peptide start residue: 373) (UniProt Q6ZT07)",0.196
6,"UBE2Q1 (peptide sequence: GSVPGDPVR, peptide start residue: 95) (UniProt Q7Z7E8)",0.156
7,"UBR3 (peptide sequence: TLDKEER, peptide start residue: 1176) (UniProt Q6ZT12)",0.262
8,"RRM2B (peptide sequence: SNEEPLLR, peptide start residue: 29) (UniProt Q7LG56)",0.255
9,"DENND4A (peptide sequence: YSISGPHVLPIEK, peptide start residue: 335) (UniProt Q7Z401)",0.692
10,"UniProt Q7Z736 (peptide sequence: EGGGGAGTAAAVLGGWKR, peptide start residue: 619)",-0.48
11,"LUZP1 (peptide sequence: ADKASDTSSETVFGKR, peptide start residue: 527) (UniProt Q86V48)",-0.709
12,"UniProt Q86TB3 (peptide sequence: EGAGQRSGWGTR, peptide start residue: 1181)",-0.109
13,"PXK (peptide sequence: AQSHHGSEEER, peptide start residue: 446) (UniProt Q7Z7A4)",0.313
14,"NBEAL2 (peptide sequence: SHVLVGLEDGK, peptide start residue: 2700) (UniProt Q6ZNJ1)",0.535
15,"SRCAP (peptide sequence: AEDEEDIR, peptide start residue: 2248) (UniProt Q6ZRS2)",-0.327
16,"UniProt Q7Z7L9 (peptide sequence: EQMLTMLPK, peptide start residue: 96)",-0.192
17,"UniProt Q7Z624 (peptide sequence: ASLVDAIKR, peptide start residue: 241)",0.492
18,"CYFIP1 (peptide sequence: LMNFMYFQR, peptide start residue: 122) (UniProt Q7L576)",0.263
